# Experimental data: the supplement of paper PMC8960247
# Counter-ions that a name gives are not always drawn. The data scatter; read single values as rough.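 Immortalized human renal angiomyolipoma cells with an empty vector keep TSC2 lost. A luminescent ATP assay measured viability, normalized per plate to vehicle-treated wells, in low-serum medium where TSC2-rescued cells fail to grow.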
# System: 621-102 (TSC2-deficient)
# Experiment: relative viability vs DMSO (fraction); higher = less cytotoxic
# Settings: serum: 0.1% FBS, 72 h
Compound,relative viability (0.0128 nM),relative viability (0.064 nM),relative viability (0.32 nM),relative viability (1.6 nM),relative viability (8 nM),relative viability (40 nM),relative viability (200 nM),relative viability (1000 nM),relative viability (5000 nM)
c1cncc(CN2CCC(n3ncc4c(N5CCOCC5)nc(-c5ccc6[nH]ccc6c5)nc43)CC2)c1 [WAY-600],1.14,1.14,1.21,1.08,0.843,0.587,0.778,0.793,0.0197
CC(C)n1nc(-c2cc3cc(O)ccc3[nH]2)c2c(N)ncnc21 [PP242],0.701,0.769,0.744,0.685,0.64,0.728,0.669,0.635,0.274
CC(=O)NC[C@H]1CN(c2ccc(N3CCOCC3)c(F)c2)C(=O)O1 [Linezolid],0.809,0.762,0.784,0.715,0.717,0.64,0.75,0.795,0.746
COC1=C2C[C@@H](C)C[C@H](OC)[C@H](O)[C@@H](C)/C=C(\C)[C@H](OC(N)=O)[C@@H](OC)/C=C\C=C(/C)C(=O)NC(=CC1=O)C2=O [Geldanamycin],0.617,0.639,0.726,0.609,0.235,0.0444,0.0269,0.0105,0.00804
CC1(C)CC(=O)c2c(C(F)(F)F)nn(-c3ccc(C(N)=O)c(N[C@H]4CC[C@H](OC(=O)CN)CC4)c3)c2C1,0.762,0.727,0.883,0.722,0.707,0.211,0.0325,0.0341,0.00869
CC(C)NCC(O)c1ccc(NS(C)(=O)=O)cc1 (configuration not stated) [Sotalol],0.57,0.699,0.76,0.779,0.799,0.758,0.831,0.819,0.818
C[C@]1(c2nc3c(C(N)=O)cccc3[nH]2)CCCN1 [ABT-888],0.769,0.758,0.742,0.651,0.633,0.681,0.409,0.486,0.521
CN(C)CCCN1c2ccccc2Sc2ccc(Cl)cc21 [Chlorpromazine HCl],0.757,0.75,0.788,0.796,0.789,0.779,0.738,0.644,0.0672
O=C1NC(=O)/C(=C/c2ccc3c(c2)OC(F)(F)O3)S1,0.764,0.715,0.151,0.742,0.751,0.689,0.77,0.729,0.775
Cn1cncc1[C@@](N)(c1ccc(Cl)cc1)c1ccc2c(c1)c(-c1cccc(Cl)c1)cc(=O)n2C [Tipifarnib],0.957,0.801,0.803,0.805,0.713,0.314,0.00794,0.00636,0.00741
C[C@@](Cc1ccc(O)c(O)c1)(NN)C(=O)O [Carbidopa],0.628,0.73,0.736,0.734,0.683,0.717,0.633,0.206,0.583
O=c1cc(N2CCOCC2)oc2c(-c3cccc4c3sc3ccccc34)cccc12 [NU7441],1.07,1.01,1.14,1.01,0.722,0.568,0.58,0.264,0.0121
O=C1[C@H](Cc2ccc(O)cc2)N2C(=O)CCN(C(=O)NCc3ccccc3)[C@H]2CN1Cc1cccc2ccccc12 [ICG-001],1.03,1.08,1.09,0.997,0.713,0.738,0.817,0.457,0.462
Oc1cccc(-c2nc(N3CCOCC3)c3oc4ncccc4c3n2)c1 [PI-103],0.925,0.893,0.844,0.949,0.841,0.645,0.765,0.569,0.478
FC(F)c1nc2ccccc2n1-c1nc(N2CCOCC2)nc(N2CCOCC2)n1 [ZSTK474],0.875,0.96,1.05,1.09,1.04,0.91,0.643,0.504,0.446
Nc1nc(=O)[nH]cc1F [Flucytosine],0.754,0.885,0.842,0.675,0.716,0.982,0.819,0.687,0.738
CC(C)C(=O)Oc1ccc(CO)cc1[C@H](CCN(C(C)C)C(C)C)c1ccccc1 [Fesoterodine Fumarate],1.15,1.08,0.897,0.254,0.803,0.78,0.325,0.542,0.682
C[N+]1(C)[C@@H]2C[C@@H](OC(=O)C(O)(c3cccs3)c3cccs3)C[C@H]1[C@@H]1O[C@@H]12 [Tiotropium Bromide hydrate],0.961,0.922,0.883,0.84,0.756,0.681,0.802,0.699,0.679
Cc1cc(Nc2cc(N3CCN(C)CC3)nc(/C=C/c3ccccc3)n2)n[nH]1 [ENMD-2076],0.838,0.768,0.695,0.227,0.761,0.123,0.689,0.634,0.622
C=CC(=O)Nc1cc2c(Nc3ccc(F)c(Cl)c3)ncnc2cc1OCCCN1CCOCC1 [CI-1033(Canertinib)],0.843,0.809,0.685,0.82,0.804,0.827,0.779,0.704,0.0103
CN(C)C1CCN(C(=O)c2ccc(NC(=O)Nc3ccc(-c4nc(N5CCOCC5)nc(N5CCOCC5)n4)cc3)cc2)CC1 [PKI587],0.219,0.737,0.717,0.765,0.518,0.265,0.0842,0.0462,0.0403
CN1CC2c3ccccc3Oc3ccc(Cl)cc3C2C1 (configuration not stated) [Asenapine],1.25,1.29,1.53,1.49,1.07,0.858,1.17,1.43,1.23
COc1ccccc1N1CCN(CCN(C(=O)C2CCCCC2)c2ccccn2)CC1,0.783,0.748,0.76,0.791,0.566,0.618,0.692,0.76,0.143

# 2 compounds picked at random from those above, as already listed:
Compound,relative viability (0.0128 nM),relative viability (0.064 nM),relative viability (0.32 nM),relative viability (1.6 nM),relative viability (8 nM),relative viability (40 nM),relative viability (200 nM),relative viability (1000 nM),relative viability (5000 nM)
COc1ccccc1N1CCN(CCN(C(=O)C2CCCCC2)c2ccccn2)CC1,0.783,0.748,0.76,0.791,0.566,0.618,0.692,0.76,0.143
CN(C)C1CCN(C(=O)c2ccc(NC(=O)Nc3ccc(-c4nc(N5CCOCC5)nc(N5CCOCC5)n4)cc3)cc2)CC1 [PKI587],0.219,0.737,0.717,0.765,0.518,0.265,0.0842,0.0462,0.0403
